## Library screening results

The values are deposited in ChEMBL (CHEMBL3988442, “University of Dundee, Small-Polar-MMV Screening Library” (2021)).

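Whole-cell assay for inhibitors of Mycobacterium tuberculosis growth, labelled Cornell in the record; the read-out is not stated. The concentration is filed as 10 mM, unlikely as a test dose, so the dose is not known. Higher means stronger inhibition (inferred from two other growth screens of the library). About 53,000 compounds were tested under these conditions; 1.7% (about 900) showed 50% or more at least once.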

The filed quantity is “Percent Effect” (%).
The record does not define 0% and 100%; most values in the screen are far below 50% and negative numbers occur (in some assays of this library far below -100).
Compounds were drawn at random from those tested, without regard to their results.

SMILES: Cc1cc2c(cc1CNC(Cc1cccs1)c1nccs1)OCO2.Cl (centres unmarked)
effect: 48.92

SMILES: CSc1nccn1-c1cccc(C(=O)NCc2nnc(C)n2C)c1
effect: 21.75

SMILES: Cc1cc(NC(=O)NC(C)CN2CCN(c3ccccc3)CC2)on1 (centres unmarked)
effect: 18.27

SMILES: Cc1cnc(C)c(N2CCN(CCCc3ccncc3)CC2)n1
effect: -19.67

SMILES: CCOC(=O)C(C)Nc1cccc(COCc2ccco2)c1 (centres unmarked)
effect: 10.67

SMILES: O=C1CCCN1CCc1noc(-c2ccc(Cl)cc2)n1
effect: 21.12

SMILES: Cc1ccc(CNC(=O)c2nc3c(o2)CN(C(=O)c2cccnc2)C3)o1.O=C(O)C(F)(F)F
effect: 17.23

SMILES: O=C(NCc1cc[nH]n1)NCC(c1ccc(F)cc1)N1CCOCC1 (centres unmarked)
effect: 2.362

SMILES: Cc1nn(C)c2ncc(CN3CCN(Cc4ccco4)CC3)cc12
effect: -28.68

SMILES: Cn1c(CCNC(=O)Nc2cn[nH]c2)nc2ccc(F)cc21
effect: 26.69

SMILES: CN1CCN(CC(NCc2cccc(O)c2)c2ccccc2)CC1 (centres unmarked)
effect: 3.141

SMILES: Cc1cc(Cc2ccc(S(=O)(=O)N3CCSCC3)cc2)c(=O)[nH]n1
effect: 4.078

SMILES: CNc1cncc(C2CCCN2S(=O)(=O)c2ccccc2F)n1 (centres unmarked)
effect: -12.5

SMILES: CCCc1cc(C(=O)N(Cc2cccnc2)C[C@@H]2CCC(=O)N2)no1
effect: 12.27

SMILES: CCn1cc(Cn2cc(-c3cccc(C(C)N(C)C)c3)nn2)cn1 (centres unmarked)
effect: -1.034

SMILES: CCO[C@@H]1CO[C@@]2(CCCN(S(=O)(=O)c3ccccc3)C2)C1
effect: 13.12

SMILES: O=C(O)C(F)(F)F.O=C(O)C(F)(F)F.[H][C@@]12OCCN(CC3CCOCC3)[C@@]1([H])CC[C@H]2Oc1ccccn1
effect: 9.783

SMILES: O=C(NCCc1coc(-c2ccccc2)n1)NC1CC1
effect: -29.99

SMILES: CN(C)C(=O)COCc1cncc2c1CCN(Cc1nccn1C)C2
effect: 8.542

SMILES: COc1ccc(C2OC(COc3ccccc3Br)=NN2C(C)=O)cc1 (centres unmarked)
effect: -1.565

SMILES: Cc1cc(CN(C)C(=O)NC(C)Cc2ccc(O)cc2)no1 (centres unmarked)
effect: 5.669

SMILES: Cc1cccc(CN2CCC(Cc3ccccc3F)CC2)n1
effect: 56.1

SMILES: Cc1noc(CCNC(=O)NCC(=O)NCc2ccccc2)n1
effect: -54.98

SMILES: CS(=O)(=O)N1CCc2[nH]cnc2C12CCN(C(=O)c1cccnc1)CC2
effect: 6.945

SMILES: O=C(c1cscn1)N1CCC(O)(Cn2ccc3ccncc32)CC1
effect: -13.88

SMILES: O=C(O)C(F)(F)F.O=C(O)C(F)(F)F.[H][C@@]12OCCN(Cc3scnc3C)[C@@]1([H])CC[C@H]2Oc1ccccn1
effect: 20.43

SMILES: CCCc1nc(C)cc(N2CCNC(C(=O)NCc3cccnc3)C2)n1 (centres unmarked)
effect: -1.965

SMILES: CNC(=O)NC(=O)CN1CCN(c2ccc(C(=O)OC)cc2)CC1C (centres unmarked)
effect: -3.666

SMILES: Cl.NCC(=O)N1CCCC1c1n[nH]cc1-c1ccccc1F (centres unmarked)
effect: -8.12

SMILES: Cc1cc(C(=O)N2CCC3(CC2)c2nc[nH]c2CCN3CC(C)C)no1
effect: 2.399

SMILES: CN(C)C(=O)C1CCCN1CCCNC(=O)Cc1ccccc1F (centres unmarked)
effect: 1.712

SMILES: Cc1c(CNC(=O)Nc2cccc3c2CCN3C)cnn1C
effect: -30.63

SMILES: CCC(NC(=O)c1nn(C)cc1C(=O)O)c1ccc(C)cc1 (centres unmarked)
effect: 2.527

SMILES: COc1ccc(-c2ccnc(C3CCNCC3)c2)cc1.Cl
effect: -5.844

SMILES: CC(C)C(O)C(=O)N1CCC2(CC1)c1nc[nH]c1CCN2S(C)(=O)=O (centres unmarked)
effect: 5.585

SMILES: COc1cccc(CNc2c(C)nn(C(C)C)c2C)c1.Cl
effect: 17.96

SMILES: COCCn1cc(NCc2c[nH]nc2C(C)(C)C)cn1
effect: 2.45

SMILES: [H][C@]12CCN(C(C)=O)[C@@]1([H])CC[C@H](COCC(=O)N1CCCC1)O2
effect: -45.3

SMILES: COCC(=O)NCc1cc(=O)n2c(n1)CN(CC1CCOC1)CCC2.O=C(O)C(F)(F)F (centres unmarked)
effect: -28.11

SMILES: CCC1(CC)CC(=O)N(CC(O)c2cccc(F)c2)C1=O (centres unmarked)
effect: 12.9

SMILES: CN(C)C(=O)CS(=O)(=O)Cc1cc(Cl)c2c(c1)OCO2
effect: -6.354

SMILES: Cc1cnc(C(=O)N(C)[C@@H]2CCC[C@@H](Oc3ccccc3)[C@@H]2O)cn1
effect: -45.32

SMILES: CCc1ccc(CN(C)C(=O)C2CC(=O)N(c3cccc(O)c3)C2)nc1 (centres unmarked)
effect: -5.821

SMILES: NC(=O)c1ccc(OCCCN2CCC3(CC2)OCCCC3O)cc1 (centres unmarked)
effect: 1.868

SMILES: [H][C@]12CC[C@@H](N(C)c3ccc(C)nn3)[C@@]1([H])CN(C(=O)CC1CCOCC1)C2
effect: -2.76

For reference, 4 entries once more:

| SMILES | effect |
|---|---|
| `Cc1ccc(CNC(=O)c2nc3c(o2)CN(C(=O)c2cccnc2)C3)o1.O=C(O)C(F)(F)F` | 17.23 |
| `Cc1noc(CCNC(=O)NCC(=O)NCc2ccccc2)n1` | -54.98 |
| `COc1ccc(-c2ccnc(C3CCNCC3)c2)cc1.Cl` | -5.844 |
| `CCc1ccc(CN(C)C(=O)C2CC(=O)N(c3cccc(O)c3)C2)nc1` (centres unmarked) | -5.821 |